According to patent US12503439B2, “Heteroaryl compounds for the treatment of pain” (VERTEX PHARMACEUTICALS INCORPORATED, priority 2022, dated 2025):
Some of these results come from one statement about several compounds together.

Amino acid sequences for entries named in this document (tags omitted). Residues count along the entry.
UniProt Q9Y5Y9, 126-1722 limits assumed: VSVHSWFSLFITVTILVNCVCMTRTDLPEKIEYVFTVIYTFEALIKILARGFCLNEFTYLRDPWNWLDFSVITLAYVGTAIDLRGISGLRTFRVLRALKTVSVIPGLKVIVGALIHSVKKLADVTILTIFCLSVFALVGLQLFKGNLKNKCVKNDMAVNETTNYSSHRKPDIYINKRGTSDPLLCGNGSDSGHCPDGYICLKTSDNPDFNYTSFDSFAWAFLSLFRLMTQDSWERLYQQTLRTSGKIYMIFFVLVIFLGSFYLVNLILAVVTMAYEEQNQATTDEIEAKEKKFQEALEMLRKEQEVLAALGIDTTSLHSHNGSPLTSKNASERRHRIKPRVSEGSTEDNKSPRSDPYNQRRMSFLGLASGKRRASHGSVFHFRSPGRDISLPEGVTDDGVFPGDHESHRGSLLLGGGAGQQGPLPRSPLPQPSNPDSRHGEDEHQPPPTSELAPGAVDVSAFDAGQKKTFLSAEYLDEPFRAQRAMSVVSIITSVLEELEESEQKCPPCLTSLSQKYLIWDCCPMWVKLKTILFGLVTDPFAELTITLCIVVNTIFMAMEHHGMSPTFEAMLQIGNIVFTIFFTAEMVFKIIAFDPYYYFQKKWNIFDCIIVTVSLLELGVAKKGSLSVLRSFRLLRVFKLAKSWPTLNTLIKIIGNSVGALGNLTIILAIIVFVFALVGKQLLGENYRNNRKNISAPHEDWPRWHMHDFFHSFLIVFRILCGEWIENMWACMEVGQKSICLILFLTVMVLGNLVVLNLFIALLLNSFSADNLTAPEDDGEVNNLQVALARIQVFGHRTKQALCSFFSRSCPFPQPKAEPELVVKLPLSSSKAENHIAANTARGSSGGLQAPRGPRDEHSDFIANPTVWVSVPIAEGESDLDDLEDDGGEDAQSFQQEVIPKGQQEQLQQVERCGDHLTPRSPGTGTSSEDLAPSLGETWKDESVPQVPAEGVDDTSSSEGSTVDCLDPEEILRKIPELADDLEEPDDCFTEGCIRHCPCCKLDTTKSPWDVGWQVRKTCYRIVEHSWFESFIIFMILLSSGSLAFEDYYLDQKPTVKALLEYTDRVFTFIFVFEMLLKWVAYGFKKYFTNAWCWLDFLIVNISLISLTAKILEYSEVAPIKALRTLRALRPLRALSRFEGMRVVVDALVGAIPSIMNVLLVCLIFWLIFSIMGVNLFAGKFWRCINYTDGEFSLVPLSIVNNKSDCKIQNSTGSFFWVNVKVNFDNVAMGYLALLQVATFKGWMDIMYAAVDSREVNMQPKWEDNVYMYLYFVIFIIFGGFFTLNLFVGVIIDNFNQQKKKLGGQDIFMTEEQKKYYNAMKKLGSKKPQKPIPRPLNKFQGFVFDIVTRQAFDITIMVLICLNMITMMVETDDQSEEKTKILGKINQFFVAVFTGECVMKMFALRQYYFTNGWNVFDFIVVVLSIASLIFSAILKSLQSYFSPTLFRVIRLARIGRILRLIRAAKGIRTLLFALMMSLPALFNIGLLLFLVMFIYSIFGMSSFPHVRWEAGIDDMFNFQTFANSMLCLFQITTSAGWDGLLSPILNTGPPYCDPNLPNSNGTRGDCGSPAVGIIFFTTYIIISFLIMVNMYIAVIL

Target: truncated form of human NaV 1.8 with full channel activity (expressed in HEK cells) (Homo sapiens, UniProt Q9Y5Y9)
Assay: E-VIPR assay detecting and measuring NaV inhibition properties (electrical stimulation, membrane potential FRET dyes)
Type: cell-based
Settings: HEK cells expressing truncated human NaV 1.8, KIR2.1 BacMam; 11-point dose response; 30 min compound incubation; stimulation 10 Hz for 10 s; read-out: measured IC50 value in the E-VIPR Assay
Excerpt: E-VIPR Assay Detecting and Measuring NaV Inhibition Properties
Sodium ion channels are voltage-dependent proteins that can be activated by inducing membrane voltage changes by applying electric fields. […] The instrument comprises a microtiter plate handler, an optical system for exciting the coumarin dye while simultaneously recording the coumarin and oxonol emissions, a waveform generator, a current- or voltage-controlled amplifier, and parallel electrode pairs that are inserted into assay plate wells. Under integrated computer control, this instrument passes user-programmed electrical stimulus protocols to cells within the wells of the microtiter plate.
16-20 hours prior to running the assay on E-VIPR, HEK cells expressing a truncated form of human NaV 1.8 with full channel activity were seeded into microtiter 384-well plates, pre-coated with matrigel, at a density of 25,000 cells per well. 2.5-5% KIR2.1 BacMam virus was added to the final cell suspension before seeding into cell plates. […] Cells were expanded in 5-layer CellSTACK culture chambers or cell culture flasks with vented caps, with 90-95% humidity and 5% CO2.
Reagents and Stock Solutions:
The concentration used can be dependent on viral titer of each batch.
Human Serum (HS, Millipore #S1P1-01KL, or Sigma SLBR5469V and SLBR5470V as a 50%/50% mixture, for 25% assay final concentration)
Hexyl Dye Solution (2× Concentration):
Bath 1 Buffer containing 0.5% β-cyclodextrin (made fresh prior to each use, Sigma #C4767), 8 μM CC2-DMPE and 2 μM DiSBAC6(3). The solution was made by adding 10% Pluronic F127 stock equal to combined volumes of CC2-DMPE and DiSBAC6(3). The order of preparation was first mix Pluronic and CC2-DMPE, then add DiSBAC6(3), then while vortexing add Bath 1/β-Cyclodextrin.
Assay Protocol (7 Key Steps):
The compound plate was backfilled with 45 μL per well of Compound Loading Buffer resulting in a 240-fold dilution of compound following a 1:1 transfer of compound into the cell plate (see Step 6). […] This assay dilution protocol was adjusted to enable a higher dose range to be tested in the presence of HS or if the final assay volume was altered. • 2) Hexyl Dye Solution was prepared. • 3) Cell plates were prepared. On the day of the assay, the media was aspirated, and the cells were washed three times with 80 μL of Bath-1 buffer, maintaining 25 μL residual volume in each well. • 4) 25 μL per well of Hexyl Dye Solution was dispensed into the cell plates. The cells were incubated for 20 minutes at room temperature or ambient conditions in darkness. • 5) 45 μL per well of Compound Loading Buffer was dispensed into compound plates. • 6) The cell plates were washed three times with 80 μL per well of Bath-1 Buffer, leaving […] of residual volume. Then 25 μL per well from compound plate was transferred to each cell plate. The mixture was incubated for 30 minutes at room temperature/ambient conditions. • 7) The cell plate containing compound was read on E-VIPR using the current-controlled amplifier to deliver stimulation wave pulses using a symmetrical biphasic waveform. […] A pre-stimulus recording was performed for each well for 0.5 seconds to obtain the un-stimulated intensities baseline. The stimulatory waveform was followed by 0.5 seconds of post-stimulation recording to examine the relaxation to the resting state. All E-VIPR responses were measured at 200 Hz acquisition rate. Data Analysis:
The response as a function of time was reported as the ratios obtained using the following formula: […]
The data were normalized by calculating the initial (Ri) and final (Rf) ratios. These were the average ratio values during part or all of the pre-stimulation period and during sample points during the stimulation period. The fluorescence ratio (Rf/Ri) was then calculated and reported as a function of time.
Control responses were obtained by performing assays in the presence of the positive control, and in the absence of pharmacological agents (DMSO vehicle negative control).

Compound	IC50 [nM]
Cc1c(Oc2nc3ccccc3cc2-c2[nH]c3ccc(F)cc3c(=O)c2C)ccc(F)c1F [Compound 23, 2-[2-(3,4-difluoro-2-methyl-phenoxy)-3-quinolyl]-6-fluoro-3-methyl-1H-quinolin-4-one]	< 500
Cc1c(Oc2ncc(C(F)(F)F)c(C)c2-c2cc(=O)c3c(-c4ncccn4)nccc3[nH]2)ccc(F)c1F [Compound 242, 2-[2-(3,4-difluoro-2-methyl-phenoxy)-4-methyl-5-(trifluoromethyl)-3-pyridyl]-5-pyrimidin-2-yl-1H-1,6-naphthyridin-4-one]	< 500
COc1c(Oc2cc(C(F)(F)F)c(F)cc2-c2cc(=O)c3c(NCCN(C)C)nccc3[nH]2)ccc(F)c1F [Compound 188, 2-[2-(3,4-difluoro-2-methoxy-phenoxy)-5-fluoro-4-(trifluoromethyl)phenyl]-5-[2-(dimethylamino)ethylamino]-1H-1,6-naphthyridin-4-one]	< 500
CC(C)(C)c1nn(C2CCC(F)(F)CC2)c(-c2cc(=O)c3c(C(N)=O)nccc3[nH]2)c1Br [Compound 374, 2-[4-bromo-5-tert-butyl-2-(4,4-difluorocyclohexyl)pyrazol-3-yl]-4-oxo-1H-1,6-naphthyridine-5-carboxamide]	< 500
COc1ccc2[nH]c(-c3c(Oc4ccc(F)c(F)c4C)ncc(C(F)(F)F)c3C)cc(=O)c2c1C#N [Compound 251, 2-[2-(3,4-difluoro-2-methyl-phenoxy)-4-methyl-5-(trifluoromethyl)-3-pyridyl]-6-methoxy-4-oxo-1H-quinoline-5-carbonitrile]	< 500
CC(C)(C)c1cc(-c2cc(=O)c3c(C(N)=O)nccc3[nH]2)n(Cc2ccc(F)cc2)n1 [Compound 377, 2-(3-(tert-butyl)-1-(4-fluorobenzyl)-1H-pyrazol-5-yl)-4-oxo-1,4-dihydro-1,6-naphthyridine-5-carboxamide]	< 500
Cc1c(Oc2ncc(C(F)(F)F)c(C)c2-c2cc(=O)c3c(N4CCC(N(C)C)C4)nccc3[nH]2)ccc(F)c1F (stereo not drawn) [Compound 177, 2-[2-(3,4-difluoro-2-methyl-phenoxy)-4-methyl-5-(trifluoromethyl)-3-pyridyl]-5-[3-(dimethylamino)pyrrolidin-1-yl]-1H-1,6-naphthyridin-4-one]	< 500
COC1CCC(c2cc(C(C)(C)C)ncc2-c2cc(=O)c3c(C(N)=O)nccc3[nH]2)CC1 (stereo not drawn) [Compound 130, 2-[6-tert-butyl-4-(4-methoxycyclohexyl)-3-pyridyl]-4-oxo-1H-1,6-naphthyridine-5-carboxamide]	< 500
Cc1c(Oc2ncc(C(F)(F)F)c(C)c2-c2cc(=O)c3c(OC4CCOCC4)nccc3[nH]2)ccc(F)c1F [Compound 198, 2-[2-(3,4-difluoro-2-methyl-phenoxy)-4-methyl-5-(trifluoromethyl)-3-pyridyl]-5-tetrahydropyran-4-yloxy-1H-1,6-naphthyridin-4-one]	< 500
COc1c(Oc2cc(C(F)(F)F)c(F)cc2-c2cc(=O)c3c(N=S(C)(C)=O)nccc3[nH]2)ccc(F)c1F [Compound 205, 2-[2-(3,4-difluoro-2-methoxy-phenoxy)-5-fluoro-4-(trifluoromethyl)phenyl]-5-[[dimethyl(oxo)-λ6-sulfanylidene]amino]-1H-1,6-naphthyridin-4-one]	< 500
COc1c(Oc2cc(C(F)(F)F)c(F)cc2-c2cc(=O)c3c(N=S4(=O)CCNCC4)nccc3[nH]2)ccc(F)c1F [Compound 206, 2-[2-(3,4-difluoro-2-methoxy-phenoxy)-5-fluoro-4-(trifluoromethyl)phenyl]-5-[(1-oxo-1,4-thiazinan-1-ylidene)amino]-1H-1,6-naphthyridin-4-one]	< 500
C[C@@H]1CN(c2nc3ccccc3cc2-c2cc(=O)c3c(C(N)=O)nccc3[nH]2)C[C@@H]1C [Compound 295, 2-[2-[(3R,4S)-3,4-dimethylpyrrolidin-1-yl]-3-quinolyl]-4-oxo-1H-1,6-naphthyridine-5-carboxamide]	< 500

Results, then the compound that gave them:

IC50 [nM]	Compound
< 500	CC(C)(C)c1nn(C2CCC(F)(F)CC2)c(-c2cc(=O)c3c(C(N)=O)nccc3[nH]2)c1C(F)(F)F [Compound 350, 2-[5-tert-butyl-2-(4,4-difluorocyclohexyl)-4-(trifluoromethyl)pyrazol-3-yl]-4-oxo-1H-1,6-naphthyridine-5-carboxamide]
< 500	COc1c(Oc2cnc(C(F)(F)F)c(C)c2-c2cc(=O)c3c(C(N)=O)nccc3[nH]2)ccc(F)c1F [Compound 50, 2-[5-(3,4-difluoro-2-methoxy-phenoxy)-3-methyl-2-(trifluoromethyl)-4-pyridyl]-4-oxo-1H-1,6-naphthyridine-5-carboxamide]
< 500	O=c1cc(-c2ccc(C(F)(F)F)nc2N2CCCC(F)(F)CC2)[nH]c2ccncc12 [Compound 84, 2-[2-(4,4-difluoroazepan-1-yl)-6-(trifluoromethyl)-3-pyridyl]-1H-1,6-naphthyridin-4-one]
< 500	NC(=O)c1nccc2[nH]c(-c3cc4c(nc3N3CCCC(F)(F)CC3)CCC4)cc(=O)c12 [Compound 88, 2-[2-(4,4-difluoroazepan-1-yl)-6,7-dihydro-5H-cyclopenta[b]pyridin-3-yl]-4-oxo-1H-1,6-naphthyridine-5-carboxamide]
< 500	CCOC(=O)c1c(-c2cc(C)c(C(F)(F)F)nc2N2CCCC(F)(F)CC2)[nH]c2cccnc2c1=O [Compound 64, ethyl 2-[2-(4,4-difluoroazepan-1-yl)-5-methyl-6-(trifluoromethyl)-3-pyridyl]-4-oxo-1H-1,5-naphthyridine-3-carboxylate]
< 500	NC(=O)c1nccc2[nH]c(-c3cc4ccccc4nc3N3CCCC(F)(F)CC3)cc(=O)c12 [Compound 59, 2-[2-(4,4-difluoroazepan-1-yl)-3-quinolyl]-4-oxo-1H-1,6-naphthyridine-5-carboxamide]
< 500	NC(=O)c1nccc2[nH]c(-c3cc4ccccc4nc3N3CCCCCCC3)cc(=O)c12 [Compound 291, 2-[2-(azocan-1-yl)-3-quinolyl]-4-oxo-1H-1,6-naphthyridine-5-carboxamide]
< 500	COc1cccc2[nH]c(-c3cc(C)c(C(F)(F)F)nc3N3CCCC(F)(F)CC3)cc(=O)c12 [Compound 69, 2-[2-(4,4-difluoroazepan-1-yl)-5-methyl-6-(trifluoromethyl)-3-pyridyl]-5-methoxy-1H-quinolin-4-one]
< 500	Cc1cc(-c2cc(=O)c3cccc(F)c3[nH]2)c(N2CCCC(F)(F)CC2)nc1C(F)(F)F [Compound 67, 2-[2-(4,4-difluoroazepan-1-yl)-5-methyl-6-(trifluoromethyl)-3-pyridyl]-8-fluoro-1H-quinolin-4-one]
< 500	NC(=O)c1nccc2[nH]c(-c3cc4ccccc4nc3N3CC[C@H]4CC(F)(F)C[C@H]4C3)cc(=O)c12 [Compound 297, 2-[2-[(4aS,7aR)-6,6-difluoro-3,4,4a,5,7,7a-hexahydro-1H-cyclopenta[c]pyridin-2-yl]-3-quinolyl]-4-oxo-1H-1,6-naphthyridine-5-carboxamide]
< 500	CC(C)(C)c1cc(C2CCC(F)(F)CC2)c(-c2cc(=O)c3c(C(N)=O)nccc3[nH]2)cc1Cl [Compound 135, 2-[4-tert-butyl-5-chloro-2-(4,4-difluorocyclohexyl)phenyl]-4-oxo-1H-1,6-naphthyridine-5-carboxamide]
< 500	COC1CN(c2nc3ccccc3cc2-c2cc(=O)c3c(C(N)=O)nccc3[nH]2)CC1C(F)(F)F (racemic) [Compound 287, 2-[2-[3-methoxy-4-(trifluoromethyl)pyrrolidin-1-yl]-3-quinolyl]-4-oxo-1H-1,6-naphthyridine-5-carboxamide]
